These are yes or no findings as the source states them, for the method shown. In cells and extracts the contact can be indirect. Some binding calls cover weakened binding; strength is not graded here. Sequences can lack the tags named with a protein.

The chains behind the UniProt entries cited, without tags or fusion partners. Residues count along the entry.
UniProt P06731, residues 35-685: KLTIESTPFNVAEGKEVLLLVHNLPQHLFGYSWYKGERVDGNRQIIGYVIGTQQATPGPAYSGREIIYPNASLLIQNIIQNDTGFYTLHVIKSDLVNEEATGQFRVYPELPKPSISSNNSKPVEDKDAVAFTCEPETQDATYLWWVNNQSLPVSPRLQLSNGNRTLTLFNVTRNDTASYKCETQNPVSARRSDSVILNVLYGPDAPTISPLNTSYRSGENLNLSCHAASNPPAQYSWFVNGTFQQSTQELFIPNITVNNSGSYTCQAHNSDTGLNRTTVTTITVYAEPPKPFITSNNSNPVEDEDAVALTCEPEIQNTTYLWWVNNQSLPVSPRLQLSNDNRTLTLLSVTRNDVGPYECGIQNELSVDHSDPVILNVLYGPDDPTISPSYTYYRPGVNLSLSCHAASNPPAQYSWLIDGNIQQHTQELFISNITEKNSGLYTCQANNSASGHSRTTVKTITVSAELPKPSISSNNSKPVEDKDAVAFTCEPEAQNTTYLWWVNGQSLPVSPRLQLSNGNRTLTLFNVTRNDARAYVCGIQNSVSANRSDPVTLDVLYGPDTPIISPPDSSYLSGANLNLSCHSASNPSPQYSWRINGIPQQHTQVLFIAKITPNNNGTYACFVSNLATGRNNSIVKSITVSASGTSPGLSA

Experimental findings from paper PMC4839765 are described below.

For this test, the target named is CEA wild type (FL) (human) (UniProt P06731). Briefly: co-IP; HCT116 cells co-transfected with CEA (FL, N-B2, N-A3) and HA-TGFBR1-FL or HA-TGFBR1-del 1–104, 48 h; lysis in 20mM Tris, 100mM NaCl, 0.5% Nonidet P-40, 0.5% Triton X-100, 1mM EDTA; IP with CEA antibody and protein G plus agarose at 4°C; immunoblotting.

B1: HA-TGFBR1-FL (receptor, UniProt P36897 34-503)
chain: LQCFCHLCTKDNFTCVTDGLCFVSVTETTDKVIHNSMCIAEIDLIPRDRPFVCAPSSKTGSVTTTYCCNQDHCNKIELPTTVKSSPGLGPVELAAVIAGPVCFVCISLMLMVYICHNRTVIHHRVPNEEDPSLDRPFISEGTTLKDLIYDMTTSGSGSGLPLLVQRTIARTIVLQESIGKGRFGEVWRGKWRGEEVAVKIFSSREERSWFREAEIYQTVMLRHENILGFIAADNKDNGTWTQLWLVSDYHEHGSLFDYLNRYTVTVEGMIKLALSTASGLAHLHMEIVGTQGKPAIAHRDLKSKNILVKKNGTCCIADLGLAVRHDSATDTIDIAPNHRVGTKRYMAPEVLDDSINMKHFESFKRADIYAMGLVFWEIARRCSIGGIHEDYQLPYYDLVPSDPSVEEMRKVVCEQKLRPNIPNRWQSCEALRVMAKIMRECWYANGAARLTALRIKKTLSQLSQQEGIKM
Consider B1, for which the binding result is “binds”.
